No constants are given. Whether binding was seen depends on the method and setting. In cells and extracts the contact can be indirect.
Target: hypoxia-inducible factor 1α (human (endogenous in human colon cancer cell lines)) (UniProt Q16665)
Assay: co-IP; whole-cell lysates in IP lysis buffer; Anti-HA magnetic beads or Protein-A/G magnetic beads pre-incubated with anti-HIF1α (anti-IgG as negative control), 30 min at RT; washed with TBS-T or PBS-T; western blot

Chains of the proteins cited; added tags and fusions are not shown.
UniProt Q16665: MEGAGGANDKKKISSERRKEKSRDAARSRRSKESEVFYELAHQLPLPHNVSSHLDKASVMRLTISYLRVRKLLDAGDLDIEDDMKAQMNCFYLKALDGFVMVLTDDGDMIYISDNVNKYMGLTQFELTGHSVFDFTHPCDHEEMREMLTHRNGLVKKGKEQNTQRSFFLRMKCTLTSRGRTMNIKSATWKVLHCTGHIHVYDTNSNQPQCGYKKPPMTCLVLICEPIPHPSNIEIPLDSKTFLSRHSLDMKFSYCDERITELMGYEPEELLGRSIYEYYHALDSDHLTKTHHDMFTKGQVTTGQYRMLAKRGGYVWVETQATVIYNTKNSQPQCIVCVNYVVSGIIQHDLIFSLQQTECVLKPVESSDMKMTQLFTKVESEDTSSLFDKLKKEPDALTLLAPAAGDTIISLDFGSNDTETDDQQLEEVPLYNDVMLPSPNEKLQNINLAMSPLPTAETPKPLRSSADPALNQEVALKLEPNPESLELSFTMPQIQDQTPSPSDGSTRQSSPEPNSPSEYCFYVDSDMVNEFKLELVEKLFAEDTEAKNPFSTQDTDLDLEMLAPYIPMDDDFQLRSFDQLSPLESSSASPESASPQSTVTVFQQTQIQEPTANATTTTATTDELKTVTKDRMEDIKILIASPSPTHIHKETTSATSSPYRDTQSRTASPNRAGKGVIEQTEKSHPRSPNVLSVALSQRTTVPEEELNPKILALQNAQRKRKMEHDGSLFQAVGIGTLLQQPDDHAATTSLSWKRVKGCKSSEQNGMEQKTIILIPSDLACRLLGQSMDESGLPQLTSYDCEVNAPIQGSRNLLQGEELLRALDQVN

binding: no binding
B1: ONECUT3 (protein, UniProt O60422 1-494)
chain: MELSLESLGGLHSVAHAQAGELLSPGHARSAAAQHRGLVAPGRPGLVAGMASLLDGGGGGGGGGAGGAGGAGSAGGGADFRGELAGPLHPAMGMACEAPGLGGTYTTLTPLQHLPPLAAVADKFHQHAAAAAVAGAHGGHPHAHPHPAAAPPPPPPPQRLAASVSGSFTLMRDERAALASVGHLYGPYGKELPAMGSPLSPLPNALPPALHGAPQPPPPPPPPPLAAYGPPGHLAGDKLLPPAAFEPHAALLGRAEDALARGLPGGGGGTGSGGAGSGSAAGLLAPLGGLAAAGAHGPHGGGGGPGGSGGGPSAGAAAEEINTKEVAQRITAELKRYSIPQAIFAQRILCRSQGTLSDLLRNPKPWSKLKSGRETFRRMWKWLQEPEFQRMSALRLAACKRKEQEQQKERALQPKKQRLVFTDLQRRTLIAIFKENKRPSKEMQVTISQQLGLELNTVSNFFMNARRRCMNRWAEEPSTAPGGPAGATATFSKA

From PMC11876336
